Data from publication PMC7790415, “Loss of endocytosis-associated RabGEF1 causes aberrant morphogenesis and altered autophagy in photoreceptors leading to retinal degeneration” (PLoS Genetics, 2020).
These are yes or no findings as the source states them, for the method shown. Binding seen in cells or lysates may run through a third protein. Some results given as binding are weak or reduced against the parent protein; the word gives no strength.

Amino acid sequences for entries named in this document (tags omitted).
UniProt Q9JM13: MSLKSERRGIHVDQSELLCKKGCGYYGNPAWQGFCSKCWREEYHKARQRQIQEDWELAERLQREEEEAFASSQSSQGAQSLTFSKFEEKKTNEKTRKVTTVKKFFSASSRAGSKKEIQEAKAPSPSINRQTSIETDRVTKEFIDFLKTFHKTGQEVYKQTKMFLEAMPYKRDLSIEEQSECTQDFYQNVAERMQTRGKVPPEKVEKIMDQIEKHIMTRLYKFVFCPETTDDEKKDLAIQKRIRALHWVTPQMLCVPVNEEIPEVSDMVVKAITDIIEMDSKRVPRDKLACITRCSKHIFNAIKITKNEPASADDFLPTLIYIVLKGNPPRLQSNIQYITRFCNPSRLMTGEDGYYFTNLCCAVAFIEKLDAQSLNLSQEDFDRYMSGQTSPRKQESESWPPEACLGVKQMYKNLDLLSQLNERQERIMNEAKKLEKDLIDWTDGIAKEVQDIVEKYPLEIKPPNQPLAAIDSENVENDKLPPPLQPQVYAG

Biological target: RabGEF1 (mouse (endogenous in retina)) (UniProt Q9JM13)
Test: co-IP; anti-RabGEF1 antibody covalently conjugated to Dynabeads, incubated overnight with mouse retina extracts at 4°C; washes in 150 mM NaCl, 2 mM EDTA, 40 mM Tris-HCl pH 7.4, 1% NP-40, 10% glycerol; immunoblot for RabGEF1 and Rabaptin-5; rabbit IgG as negative control

binding: binds
B1: Rabaptin-5 (natural protein, mouse (endogenous in retina), UniProt O35551 1-862, looked up)
chain: MAQPGPAPQPDVSLQQRVAELEKINAEFLRAQQQLEQEFNQKRAKFKELYLAKEEDLKRQNAVLQAAQDDLGHLRTQLWEAQAEMENIKAIATVSENTKQEAIDEVKRQWREEVASLQAIMKETVRDYEHQFHLRLEQERAQWAQYRESAEREIADLRRRLSEGQEEENLENEMKKAQEDAEKLRSVVMPMEKEIAALKDKLTEAEDKIKELEASKVKELNHYLEAEKSCRTDLEMYVAVLNTQKSVLQEDAEKLRKELHEVCHLLEQERQQHNQLKHTWQKANDQFLESQRLLMRDMQRMEIVLTSEQLRQVEELKKKDQEEDEQQRVNKRKDNKKTDTEEEVKIPVVCALTQEESSTPLSNEEEHLDSTHGSVHSLDADLMLPSGDPFSKSDNDMFKDGLRRAQSTDSLGTSSSLQSKALGYNYKAKSAGNLDESDFGPLVGADSVSENFDTVSLGSLQMPSGFMLTKDQERAIKAMTPEQEETASLLSSVTQGMESAYVSPSGYRLVSETEWNLLQKEVHNAGNKLGRRCDMCSNYEKQLQGIQIQEAETRDQVKKLQLMLRQANDQLEKTMKEKQELEDFLKQSAEDSSHQISALVLRAQASEVLLEELQQSFSQAKRDVQEQMAVLMQSREQVSEELVRLQKDNDSLQGKHSLHVSLQLAEDFILPDTVEVLRELVLKYRENIVHVRTAADHMEEKLKAEILFLKEQIQAEQCLKENLEETLQLEIENCKEEIASISSLKAELERIKVEKGQLESTLREKSQQLESLQEMKVNLEEQLKKETAAKATVEQLMFEEKNKAQRLQTELDVSEQVQRDFVKLSQTLQVQLERIRQADSLERIRAILNDTKLTDINQLPET
notes: Rabaptin-5 (also known as Rabep1), mouse, endogenous protein of retinal extracts; Endogenous protein; also called Rabep1; source: endogenous, mouse retina extract (control retina)
